Results reported in paper PMC5363390.
Results are given in words; binding and its absence hold for the method and conditions named. Some entries that bind do so weakly or less than the wild type. Tags and fused reporters may be left off the sequences shown.

Target: T1, PACT expressed as a GAL4 DNA-binding domain fusion protein (pGBKT7) (UniProt O75569)
T1 sequence: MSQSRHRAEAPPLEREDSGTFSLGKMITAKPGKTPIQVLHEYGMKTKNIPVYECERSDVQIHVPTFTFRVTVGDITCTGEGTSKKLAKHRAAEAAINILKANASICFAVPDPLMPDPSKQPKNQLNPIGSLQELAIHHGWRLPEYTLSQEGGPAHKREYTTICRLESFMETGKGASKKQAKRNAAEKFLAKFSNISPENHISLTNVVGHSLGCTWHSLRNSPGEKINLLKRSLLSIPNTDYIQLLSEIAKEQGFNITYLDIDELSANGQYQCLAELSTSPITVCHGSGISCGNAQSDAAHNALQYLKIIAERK
Experiment: two-hybrid; ADAR1 in pGADT7, PACT in pGBKT7, AH109 yeast; serial dilutions spotted on triple dropout SD medium lacking histidine, tryptophan and leucine, 30°C, 3 days

binding: binds
B1: ADAR1 expressed as a GAL4 DNA-activation domain fusion protein (pGADT7) (protein, UniProt P55265 1-1226)
chain: MNPRQGYSLSGYYTHPFQGYEHRQLRYQQPGPGSSPSSFLLKQIEFLKGQLPEAPVIGKQTPSLPPSLPGLRPRFPVLLASSTRGRQVDIRGVPRGVHLRSQGLQRGFQHPSPRGRSLPQRGVDCLSSHFQELSIYQDQEQRILKFLEELGEGKATTAHDLSGKLGTPKKEINRVLYSLAKKGKLQKEAGTPPLWKIAVSTQAWNQHSGVVRPDGHSQGAPNSDPSLEPEDRNSTSVSEDLLEPFIAVSAQAWNQHSGVVRPDSHSQGSPNSDPGLEPEDSNSTSALEDPLEFLDMAEIKEKICDYLFNVSDSSALNLAKNIGLTKARDINAVLIDMERQGDVYRQGTTPPIWHLTDKKRERMQIKRNTNSVPETAPAAIPETKRNAEFLTCNIPTSNASNNMVTTEKVENGQEPVIKLENRQEARPEPARLKPPVHYNGPSKAGYVDFENGQWATDDIPDDLNSIRAAPGEFRAIMEMPSFYSHGLPRCSPYKKLTECQLKNPISGLLEYAQFASQTCEFNMIEQSGPPHEPRFKFQVVINGREFPPAEAGSKKVAKQDAAMKAMTILLEEAKAKDSGKSEESSHYSTEKESEKTAESQTPTPSATSFFSGKSPVTTLLECMHKLGNSCEFRLLSKEGPAHEPKFQYCVAVGAQTFPSVSAPSKKVAKQMAAEEAMKALHGEATNSMASDNQPEGMISESLDNLESMMPNKVRKIGELVRYLNTNPVGGLLEYARSHGFAAEFKLVDQSGPPHEPKFVYQAKVGGRWFPAVCAHSKKQGKQEAADAALRVLIGENEKAERMGFTEVTPVTGASLRRTMLLLSRSPEAQPKTLPLTGSTFHDQIAMLSHRCFNTLTNSFQPSLLGRKILAAIIMKKDSEDMGVVVSLGTGNRCVKGDSLSLKGETVNDCHAEIISRRGFIRFLYSELMKYNSQTAKDSIFEPAKGGEKLQIKKTVSFHLYISTAPCGDGALFDKSCSDRAMESTESRHYPVFENPKQGKLRTKVENGEGTIPVESSDIVPTWDGIRLGERLRTMSCSDKILRWNVLGLQGALLTHFLQPIYLKSVTLGYLFSQGHLTRAICCRVTRDGSAFEDGLRHPFIVNHPKVGRVSIYDSKRQSGKTKETSVNWCLADGYDLEILDGTRGTVDGPRNELSRVSKKNIFLLFKKLCSFRYRRDLLRLSYGEAKKAARDYETAKNYFKKGLKDMGYGNWISKPQEEKNFYLCPV
